In patent US20260062442A1, “COMPOSITIONS AND METHODS FOR PURIFYING ANTIGEN-BINDING ANTIBODY FRAGMENTS USING PEPTIDE LIGANDS” (North Carolina State University, priority 2022, published 2026):

Key:
human Fab-λ = assay: Dynamic binding of human Fab-λ in non-competitive condition on peptide-Toyopearl resins; details: Fab at 1 mg/mL in PBS, 0.1 mL column, residence time 2 min, elution at pH 4
human Fab-κ = assay: Dynamic binding of human Fab-κ in non-competitive condition on peptide-Toyopearl resins; details: Fab at 1 mg/mL in PBS, 0.1 mL column, residence time 2 min, elution at pH 4
Experimental: Dynamic binding of human Fab-κ and Fab-λ in non-competitive condition. The peptides listed in Table 3 were synthesized on Toyopearl resins as described herein, and the resulting adsorbents were packed into 0.1 mL (30×2.1 mm) columns, installed on a Waters Alliance 2695 HPLC system (Milford, MA), and equilibrated with PBS at pH 7.4. […] The subsequent chromatographic steps of washing with PBS, elution with 0.2 M acetate buffer pH 4, regeneration with 0.1 M glycine buffer pH 2.5, and equilibration with PBS were all performed at 348 cm/h. The dynamic binding protocol was repeated with 50 μL of human Fab-κ and Fab-λ, both at 1 mg/mL in PBS. The column effluent was continuously monitored at 280 nm by UV spectrophotometry. The yield was determined by peak area analysis and determined by taking the area of the elution peak divided by the flow-through, elution, and regeneration peak areas. Finally, the dynamic binding capacity at 10% flowthrough of […]-Toyopearl resin was measured via continuous loading of a solution of human polyclonal Fab at either 1, 2, or 5 mg/mL in PBS at the linear velocity of either 173, 87, or 35 cm/h, corresponding to the residence times (RT) of 1, 2, and 5 min, until reaching saturation of the adsorbent. The dynamic binding capacity of Protein L-agarose resin was measured via continuous loading of human polyclonal Fab at 1 mg/mL in PBS at the linear velocity of either 173 or 87 cm/h, corresponding to RT of 1 and 2 min, until reaching saturation of the adsorbent.

engineered Fabs = assay: Purification of engineered Fabs from CHO-K1 cell culture fluids (summary statement); details: range over feedstocks
human polyclonal Fab = assay: Purification of human polyclonal Fab from null CHO-S CCCF
monoclonal Fab-κ = details: from an E. coli lysate; cited from earlier work

| Sequence | Fab-λ Yield (human Fab-λ) [%] | Fab-κ Yield (human Fab-κ) [%] | other results |
| --- | --- | --- | --- |
| FRWNFHRNTFFP | 91 | 89 | purity (engineered Fabs): 89-96%; yield (engineered Fabs): 93-96%; reduction of HCPs (human polyclonal Fab): 93 fold; reduction of host cell DNA (human polyclonal Fab): 135 fold; HCP LRV (human polyclonal Fab; anti-CHO HCP ELISA): ~1.97; DNA LRV (human polyclonal Fab; host cell DNA): ~2.13; yield (human polyclonal Fab; human Fab 1 mg/mL, HCP 0.135 mg/mL, anti-human Fab ELISA): 94.1% |
| IIHRRAFWWFPN | 66 | 55 |  |
| IRHHNIWFNTIA | 42 | 42 |  |
| NNWWRHARIINA | 60 | 19 |  |
| RWTIWPPNWHPP | 53 | 40 |  |
| WIPNSEFEHERTK [B1, peptide ligand for monoclonal Fab-κ identified by Nascimento et al] |  |  | purity of Fab-κ A (monoclonal Fab-κ): above 90%; yield of Fab-κ A (monoclonal Fab-κ): 84% |
